Source: PMC8241732
Results are given in words; binding and its absence hold for the method and conditions named. In cells and extracts the contact can be indirect. Here binding means that the protein was enriched with, or labelled near, the bait; the list need not be complete.

Chains of the proteins cited; added tags and fusions are not shown.
UniProt Q13485: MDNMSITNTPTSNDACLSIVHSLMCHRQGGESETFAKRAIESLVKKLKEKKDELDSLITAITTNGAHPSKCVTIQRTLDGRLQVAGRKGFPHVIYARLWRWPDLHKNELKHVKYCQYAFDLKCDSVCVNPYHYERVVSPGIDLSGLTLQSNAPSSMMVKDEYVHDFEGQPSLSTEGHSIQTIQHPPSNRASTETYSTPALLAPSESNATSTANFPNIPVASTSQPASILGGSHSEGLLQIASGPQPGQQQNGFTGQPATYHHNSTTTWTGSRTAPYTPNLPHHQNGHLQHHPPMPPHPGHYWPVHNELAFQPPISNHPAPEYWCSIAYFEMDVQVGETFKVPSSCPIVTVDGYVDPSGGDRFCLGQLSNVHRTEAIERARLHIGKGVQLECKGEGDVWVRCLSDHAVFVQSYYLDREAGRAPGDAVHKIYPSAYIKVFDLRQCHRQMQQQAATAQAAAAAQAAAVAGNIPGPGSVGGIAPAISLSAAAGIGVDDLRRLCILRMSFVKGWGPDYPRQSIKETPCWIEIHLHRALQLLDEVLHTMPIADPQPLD
UniProt Q13547: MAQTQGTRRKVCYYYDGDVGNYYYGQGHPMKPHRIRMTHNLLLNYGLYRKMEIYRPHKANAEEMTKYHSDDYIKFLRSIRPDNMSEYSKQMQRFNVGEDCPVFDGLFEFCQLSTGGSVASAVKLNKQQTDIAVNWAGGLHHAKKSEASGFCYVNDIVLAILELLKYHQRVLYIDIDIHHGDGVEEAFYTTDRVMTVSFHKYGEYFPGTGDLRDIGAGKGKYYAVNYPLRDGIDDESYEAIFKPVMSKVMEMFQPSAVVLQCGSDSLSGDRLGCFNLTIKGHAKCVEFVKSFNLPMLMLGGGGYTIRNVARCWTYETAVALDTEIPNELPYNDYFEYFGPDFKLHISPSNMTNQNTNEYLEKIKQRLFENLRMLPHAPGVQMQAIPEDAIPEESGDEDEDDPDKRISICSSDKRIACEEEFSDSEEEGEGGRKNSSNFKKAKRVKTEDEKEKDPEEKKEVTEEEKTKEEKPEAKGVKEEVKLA

Target: Smad4 (human (endogenous in IVD tissue of a patient)) (UniProt Q13485)
Experiment: affinity purification with mass spectrometry; degenerative IVD tissue lysate (RIPA buffer) immunoprecipitated with anti-Smad4- and IgG-coupled protein A beads; SDS-PAGE, silver staining, bands digested with trypsin, MS

binding: binds
Substance: HDAC1 (histone deacetylase 1) (from UniProt Q13547 1-482)
